We go through four molecules from publication PMC11811199 (EMBO Reports, 2024).

The chains behind the UniProt entries cited, without tags or fusion partners.
UniProt P19474: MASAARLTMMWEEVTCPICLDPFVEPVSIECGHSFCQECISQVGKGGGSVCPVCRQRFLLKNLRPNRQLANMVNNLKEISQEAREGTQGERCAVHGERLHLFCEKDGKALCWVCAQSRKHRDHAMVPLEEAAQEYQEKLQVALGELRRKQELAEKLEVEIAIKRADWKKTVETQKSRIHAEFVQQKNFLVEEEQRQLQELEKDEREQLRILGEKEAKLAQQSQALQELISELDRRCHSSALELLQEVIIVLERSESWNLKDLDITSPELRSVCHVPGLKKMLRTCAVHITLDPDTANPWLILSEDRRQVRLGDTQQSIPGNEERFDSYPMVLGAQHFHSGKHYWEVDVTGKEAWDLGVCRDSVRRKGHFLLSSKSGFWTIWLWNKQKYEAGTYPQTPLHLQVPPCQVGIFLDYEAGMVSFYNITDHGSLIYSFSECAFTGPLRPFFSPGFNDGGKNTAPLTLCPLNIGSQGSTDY

No constants are given. Whether binding was seen depends on the method and setting. Binding seen in cells or lysates may run through a third protein. A yes stands for co-enrichment or nearness to the bait. Other partners may have been found. Tags and fused reporters may be left off the sequences shown.

Assay [1] deals with T1, DYRK4-Flag (UniProt Q9NR20).
T1 sequence: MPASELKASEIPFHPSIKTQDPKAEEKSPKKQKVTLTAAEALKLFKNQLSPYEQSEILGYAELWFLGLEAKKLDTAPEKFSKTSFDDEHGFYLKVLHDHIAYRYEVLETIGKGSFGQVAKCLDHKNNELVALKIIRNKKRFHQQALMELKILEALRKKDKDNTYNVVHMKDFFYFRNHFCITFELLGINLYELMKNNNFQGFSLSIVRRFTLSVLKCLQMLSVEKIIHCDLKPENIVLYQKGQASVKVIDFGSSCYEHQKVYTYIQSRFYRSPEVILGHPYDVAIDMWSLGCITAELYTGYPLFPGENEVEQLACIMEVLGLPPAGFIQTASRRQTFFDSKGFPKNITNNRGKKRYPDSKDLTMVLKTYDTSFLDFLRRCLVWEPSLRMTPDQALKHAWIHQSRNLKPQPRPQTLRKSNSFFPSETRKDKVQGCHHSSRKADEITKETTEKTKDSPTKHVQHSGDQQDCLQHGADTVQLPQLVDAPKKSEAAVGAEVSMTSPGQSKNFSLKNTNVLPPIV
The experiment in a line: affinity purification with mass spectrometry.

Assay [2] deals with T1, DYRK4-Flag. The experiment in a line: affinity purification with mass spectrometry; HEK293T cells transfected with control or DYRK4-Flag for 24 h; lysate purified with Flag beads, SDS-PAGE, Coomassie blue; bands cut and analysed by MS.

For TRIM21 (from UniProt P19474 1-475), in the assay with DYRK4-Flag [1], the binding entry is “binds”.

B1: TRIM23 (protein, UniProt P36406 1-574)
chain: MATLVVNKLGAGVDSGRQGSRGTAVVKVLECGVCEDVFSLQGDKVPRLLLCGHTVCHDCLTRLPLHGRAIRCPFDRQVTDLGDSGVWGLKKNFALLELLERLQNGPIGQYGAAEESIGISGESIIRCDEDEAHLASVYCTVCATHLCSECSQVTHSTKTLAKHRRVPLADKPHEKTMCSQHQVHAIEFVCLEEGCQTSPLMCCVCKEYGKHQGHKHSVLEPEANQIRASILDMAHCIRTFTEEISDYSRKLVGIVQHIEGGEQIVEDGIGMAHTEHVPGTAENARSCIRAYFYDLHETLCRQEEMALSVVDAHVREKLIWLRQQQEDMTILLSEVSAACLHCEKTLQQDDCRVVLAKQEITRLLETLQKQQQQFTEVADHIQLDASIPVTFTKDNRVHIGPKMEIRVVTLGLDGAGKTTILFKLKQDEFMQPIPTIGFNVETVEYKNLKFTIWDVGGKHKLRPLWKHYYLNTQAVVFVVDSSHRDRISEAHSELAKLLTEKELRDALLLIFANKQDVAGALSVEEITELLSLHKLCCGRSWYIQGCDARSGMGLYEGLDWLSRQLVAAGVLDVA
As for B1, the binding result with DYRK4-Flag [2] is “binds”.

B2: TRIM4 (protein, UniProt Q9C037 1-500)
chain: MEAEDIQEELTCPICLDYFQDPVSIECGHNFCRGCLHRNWAPGGGPFPCPECRHPSAPAALRPNWALARLTEKTQRRRLGPVPPGLCGRHWEPLRLFCEDDQRPVCLVCRESQEHQTHAMAPIDEAFESYRTGNFDIHVDEWKRRLIRLLLYHFKQEEKLLKSQRNLVAKMKKVMHLQDVEVKNATQWKDKIKSQRMRISTEFSKLHNFLVEEEDLFLQRLNKEEEETKKKLNENTLKLNQTIASLKKLILEVGEKSQAPTLELLQNPKEVLTRSEIQDVNYSLEAVKVKTVCQIPLMKEMLKRFQVAVNLAEDTAHPKLVFSQEGRYVKNTASASSWPVFSSAWNYFAGWRNPQKTAFVERFQHLPCVLGKNVFTSGKHYWEVESRDSLEVAVGVCREDVMGITDRSKMSPDVGIWAIYWSAAGYWPLIGFPGTPTQQEPALHRVGVYLDRGTGNVSFYSAVDGVHLHTFSCSSVSRLRPFFWLSPLASLVIPPVTDRK
For the molecule B2, the binding entry with DYRK4-Flag [1] is given as “binds”.

B3: RNF138 (protein, UniProt Q8WVD3 1-245)
chain: MAEDLSAATSYTEDDFYCPVCQEVLKTPVRTTACQHVFCRKCFLTAMRESGAHCPLCRGNVTRRERACPERALDLENIMRKFSGSCRCCAKQIKFYRMRHHYKSCKKYQDEYGVSSIIPNFQISQDSVGNSNRSETSTSDNTETYQENTSSSGHPTFKCPLCQESNFTRQRLLDHCNSNHLFQIVPVTCPICVSLPWGDPSQITRNFVSHLNQRHQFDYGEFVNLQLDEETQYQTAVEESFQVNI
As to B3, the binding entry with DYRK4-Flag [1] was “binds”.
